The values below come from patent publication US7201167B2, “Method and composition for the treatment of lung surfactant deficiency or dysfunction” (Aerogen, Inc., priority 2004, dated 2007).

A short description of this series: aerosol delivery with simulated infant breathing pattern during nCPAP (drug collected on filter, HPLC). Conditions: PDDS nebulizer in respiratory circuit (FIG. 7b), 0.5 mL of 0.5% albuterol sulfate. The source says:
FIGS. 7a and 7b are diagrams of nCPAP systems 100 and 200 that may be used for measuring aerosol delivery with a simulated infant breathing pattern during nasal continuous positive airway pressure ([…] systems 100 and 200 comprise breath simulators 101 and 201, consisting of adapters with orifices representing infant size nasal prongs 102 and 202 ([…]=3) connected to absolute filters 103 and 203, attached to reciprocating pump animal ventilators 104 and 204 (Harvard Apparatus) to form a nCPAP system. Lung simulators 100 and 200 may be set to infant ventilatory parameters (VT 10 ml, respiratory rate 40 breaths per minute). A constant oxygen flow of 10 L/min from ventilators 104 and 204 may be used to generate a CPAP of 5 cm H2O regulated by threshold resistors 105 and 205. In both systems, a liquid medicament (0.5 mL of 0.5% albuterol sulfate) may be aerosolized with a nebulizer 106 and 206 placed in a circuit of the nCPAP system. Drug may be collected on filters 103 and 104 placed distal to the nasal prongs 102 and 202, and the collected drug may be assayed using High Pressure Liquid Chromatography (HPLC). […] The efficiency of the nCPAP system may then be measured by expressing the amount of drug collected on the filter as a percentage of the drug dose placed in the nebulizer. […]

In the case of albuterol sulfate, the “deposition of the medicament dose placed in the nebulizer (drug collected on filter distal to nasal prongs)” value (continuous generation of aerosol, mean ± standard deviation) is listed as 26±9% and the “deposition of the medicament dose placed in the nebulizer (drug collected on filter distal to nasal prongs)” value (intermittent generation of aerosol (interrupted during exhalation)) was 40+9%.
